Results are given in words; binding and its absence hold for the method and conditions named. In cells and extracts the contact can be indirect. Some results given as binding are weak or reduced against the parent protein; the word gives no strength.
T1: ATP9A (UniProt O75110)
T1 sequence: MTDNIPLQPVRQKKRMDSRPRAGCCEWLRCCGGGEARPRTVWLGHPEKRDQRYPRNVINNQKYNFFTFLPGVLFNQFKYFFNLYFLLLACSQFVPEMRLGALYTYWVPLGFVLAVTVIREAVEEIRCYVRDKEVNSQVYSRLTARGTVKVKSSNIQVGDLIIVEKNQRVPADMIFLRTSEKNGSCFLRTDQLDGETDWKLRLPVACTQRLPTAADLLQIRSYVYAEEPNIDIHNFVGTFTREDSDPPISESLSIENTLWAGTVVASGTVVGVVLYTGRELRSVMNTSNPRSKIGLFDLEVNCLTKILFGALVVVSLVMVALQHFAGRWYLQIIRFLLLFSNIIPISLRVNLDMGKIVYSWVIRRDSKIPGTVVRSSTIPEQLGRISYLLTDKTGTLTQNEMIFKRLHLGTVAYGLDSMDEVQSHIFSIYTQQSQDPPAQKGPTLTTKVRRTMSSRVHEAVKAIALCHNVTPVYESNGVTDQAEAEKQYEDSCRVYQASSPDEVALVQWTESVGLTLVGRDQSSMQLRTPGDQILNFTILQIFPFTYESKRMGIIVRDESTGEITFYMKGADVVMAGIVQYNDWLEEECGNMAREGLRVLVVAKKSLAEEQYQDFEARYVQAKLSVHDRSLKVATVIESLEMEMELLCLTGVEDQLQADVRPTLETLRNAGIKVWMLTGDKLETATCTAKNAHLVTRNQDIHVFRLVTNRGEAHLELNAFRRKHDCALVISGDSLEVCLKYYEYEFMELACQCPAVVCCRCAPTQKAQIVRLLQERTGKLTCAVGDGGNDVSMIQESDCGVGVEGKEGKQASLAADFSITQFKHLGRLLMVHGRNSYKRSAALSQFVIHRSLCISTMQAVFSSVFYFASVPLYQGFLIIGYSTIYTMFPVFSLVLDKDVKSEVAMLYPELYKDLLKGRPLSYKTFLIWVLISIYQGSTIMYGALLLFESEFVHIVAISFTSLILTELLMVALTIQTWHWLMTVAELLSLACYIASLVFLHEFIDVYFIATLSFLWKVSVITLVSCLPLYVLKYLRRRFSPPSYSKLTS

T2: ATP9B (UniProt O43861)
T2 sequence: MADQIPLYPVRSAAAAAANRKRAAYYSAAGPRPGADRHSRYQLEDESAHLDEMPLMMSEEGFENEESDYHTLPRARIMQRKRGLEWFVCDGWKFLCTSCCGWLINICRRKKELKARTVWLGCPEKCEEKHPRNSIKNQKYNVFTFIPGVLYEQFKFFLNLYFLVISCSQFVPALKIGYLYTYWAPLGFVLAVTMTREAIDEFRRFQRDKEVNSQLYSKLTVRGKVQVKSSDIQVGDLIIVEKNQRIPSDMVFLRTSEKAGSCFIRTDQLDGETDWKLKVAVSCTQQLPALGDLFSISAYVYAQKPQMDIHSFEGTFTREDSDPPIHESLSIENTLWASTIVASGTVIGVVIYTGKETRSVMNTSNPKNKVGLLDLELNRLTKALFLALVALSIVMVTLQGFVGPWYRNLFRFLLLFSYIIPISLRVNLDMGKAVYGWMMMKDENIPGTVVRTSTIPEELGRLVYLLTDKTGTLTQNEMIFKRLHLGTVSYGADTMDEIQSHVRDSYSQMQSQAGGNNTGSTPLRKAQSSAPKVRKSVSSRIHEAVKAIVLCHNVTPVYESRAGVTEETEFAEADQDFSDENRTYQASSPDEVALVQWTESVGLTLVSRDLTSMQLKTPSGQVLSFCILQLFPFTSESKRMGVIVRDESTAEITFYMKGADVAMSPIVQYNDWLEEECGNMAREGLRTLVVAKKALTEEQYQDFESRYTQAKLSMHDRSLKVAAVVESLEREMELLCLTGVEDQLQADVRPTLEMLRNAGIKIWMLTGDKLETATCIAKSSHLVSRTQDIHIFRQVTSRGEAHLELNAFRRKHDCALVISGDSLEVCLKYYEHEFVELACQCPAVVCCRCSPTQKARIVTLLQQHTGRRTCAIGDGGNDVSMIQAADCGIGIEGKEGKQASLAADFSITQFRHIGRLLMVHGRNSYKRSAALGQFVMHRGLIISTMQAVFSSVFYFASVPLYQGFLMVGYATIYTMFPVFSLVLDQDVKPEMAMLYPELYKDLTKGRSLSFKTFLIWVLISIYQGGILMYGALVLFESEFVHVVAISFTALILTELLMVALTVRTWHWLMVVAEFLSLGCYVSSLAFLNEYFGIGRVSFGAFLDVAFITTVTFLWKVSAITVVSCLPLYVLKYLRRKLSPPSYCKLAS


Key:
[1] = biological target: T1, ATP9A; test: co-IP; lysates of HeLa cells stably coexpressing an HA-tagged and a FLAG-tagged P4-ATPase; lysis in 20 mM Hepes pH 7.4, 150 mM NaCl, 1 mM EDTA, 1% Nonidet P-40, 4°C; anti-HA antibody and protein G Dynabeads; blot with anti-HA and anti-DYKDDDDK
[2] = biological target: T2, ATP9B; test: as above

binding [1]	binding [2]	Binder
binds	binds	ATP9B (protein, UniProt O43861 1-1147) MADQIPLYPVRSAAAAAANRKRAAYYSAAGPRPGADRHSRYQLEDESAHLDEMPLMMSEEGFENEESDYHTLPRARIMQRKRGLEWFVCDGWKFLCTSCCGWLINICRRKKELKARTVWLGCPEKCEEKHPRNSIKNQKYNVFTFIPGVLYEQFKFFLNLYFLVISCSQFVPALKIGYLYTYWAPLGFVLAVTMTREAIDEFRRFQRDKEVNSQLYSKLTVRGKVQVKSSDIQVGDLIIVEKNQRIPSDMVFLRTSEKAGSCFIRTDQLDGETDWKLKVAVSCTQQLPALGDLFSISAYVYAQKPQMDIHSFEGTFTREDSDPPIHESLSIENTLWASTIVASGTVIGVVIYTGKETRSVMNTSNPKNKVGLLDLELNRLTKALFLALVALSIVMVTLQGFVGPWYRNLFRFLLLFSYIIPISLRVNLDMGKAVYGWMMMKDENIPGTVVRTSTIPEELGRLVYLLTDKTGTLTQNEMIFKRLHLGTVSYGADTMDEIQSHVRDSYSQMQSQAGGNNTGSTPLRKAQSSAPKVRKSVSSRIHEAVKAIVLCHNVTPVYESRAGVTEETEFAEADQDFSDENRTYQASSPDEVALVQWTESVGLTLVSRDLTSMQLKTPSGQVLSFCILQLFPFTSESKRMGVIVRDESTAEITFYMKGADVAMSPIVQYNDWLEEECGNMAREGLRTLVVAKKALTEEQYQDFESRYTQAKLSMHDRSLKVAAVVESLEREMELLCLTGVEDQLQADVRPTLEMLRNAGIKIWMLTGDKLETATCIAKSSHLVSRTQDIHIFRQVTSRGEAHLELNAFRRKHDCALVISGDSLEVCLKYYEHEFVELACQCPAVVCCRCSPTQKARIVTLLQQHTGRRTCAIGDGGNDVSMIQAADCGIGIEGKEGKQASLAADFSITQFRHIGRLLMVHGRNSYKRSAALGQFVMHRGLIISTMQAVFSSVFYFASVPLYQGFLMVGYATIYTMFPVFSLVLDQDVKPEMAMLYPELYKDLTKGRSLSFKTFLIWVLISIYQGGILMYGALVLFESEFVHVVAISFTALILTELLMVALTVRTWHWLMVVAEFLSLGCYVSSLAFLNEYFGIGRVSFGAFLDVAFITTVTFLWKVSAITVVSCLPLYVLKYLRRKLSPPSYCKLAS
binds	binds	ATP9A (protein, UniProt O75110 1-1047) MTDNIPLQPVRQKKRMDSRPRAGCCEWLRCCGGGEARPRTVWLGHPEKRDQRYPRNVINNQKYNFFTFLPGVLFNQFKYFFNLYFLLLACSQFVPEMRLGALYTYWVPLGFVLAVTVIREAVEEIRCYVRDKEVNSQVYSRLTARGTVKVKSSNIQVGDLIIVEKNQRVPADMIFLRTSEKNGSCFLRTDQLDGETDWKLRLPVACTQRLPTAADLLQIRSYVYAEEPNIDIHNFVGTFTREDSDPPISESLSIENTLWAGTVVASGTVVGVVLYTGRELRSVMNTSNPRSKIGLFDLEVNCLTKILFGALVVVSLVMVALQHFAGRWYLQIIRFLLLFSNIIPISLRVNLDMGKIVYSWVIRRDSKIPGTVVRSSTIPEQLGRISYLLTDKTGTLTQNEMIFKRLHLGTVAYGLDSMDEVQSHIFSIYTQQSQDPPAQKGPTLTTKVRRTMSSRVHEAVKAIALCHNVTPVYESNGVTDQAEAEKQYEDSCRVYQASSPDEVALVQWTESVGLTLVGRDQSSMQLRTPGDQILNFTILQIFPFTYESKRMGIIVRDESTGEITFYMKGADVVMAGIVQYNDWLEEECGNMAREGLRVLVVAKKSLAEEQYQDFEARYVQAKLSVHDRSLKVATVIESLEMEMELLCLTGVEDQLQADVRPTLETLRNAGIKVWMLTGDKLETATCTAKNAHLVTRNQDIHVFRLVTNRGEAHLELNAFRRKHDCALVISGDSLEVCLKYYEYEFMELACQCPAVVCCRCAPTQKAQIVRLLQERTGKLTCAVGDGGNDVSMIQESDCGVGVEGKEGKQASLAADFSITQFKHLGRLLMVHGRNSYKRSAALSQFVIHRSLCISTMQAVFSSVFYFASVPLYQGFLIIGYSTIYTMFPVFSLVLDKDVKSEVAMLYPELYKDLLKGRPLSYKTFLIWVLISIYQGSTIMYGALLLFESEFVHIVAISFTSLILTELLMVALTIQTWHWLMTVAELLSLACYIASLVFLHEFIDVYFIATLSFLWKVSVITLVSCLPLYVLKYLRRRFSPPSYSKLTS
binds	binds	ATP9A(E195Q) (protein, UniProt O75110 1-1047) MTDNIPLQPVRQKKRMDSRPRAGCCEWLRCCGGGEARPRTVWLGHPEKRDQRYPRNVINNQKYNFFTFLPGVLFNQFKYFFNLYFLLLACSQFVPEMRLGALYTYWVPLGFVLAVTVIREAVEEIRCYVRDKEVNSQVYSRLTARGTVKVKSSNIQVGDLIIVEKNQRVPADMIFLRTSEKNGSCFLRTDQLDGQTDWKLRLPVACTQRLPTAADLLQIRSYVYAEEPNIDIHNFVGTFTREDSDPPISESLSIENTLWAGTVVASGTVVGVVLYTGRELRSVMNTSNPRSKIGLFDLEVNCLTKILFGALVVVSLVMVALQHFAGRWYLQIIRFLLLFSNIIPISLRVNLDMGKIVYSWVIRRDSKIPGTVVRSSTIPEQLGRISYLLTDKTGTLTQNEMIFKRLHLGTVAYGLDSMDEVQSHIFSIYTQQSQDPPAQKGPTLTTKVRRTMSSRVHEAVKAIALCHNVTPVYESNGVTDQAEAEKQYEDSCRVYQASSPDEVALVQWTESVGLTLVGRDQSSMQLRTPGDQILNFTILQIFPFTYESKRMGIIVRDESTGEITFYMKGADVVMAGIVQYNDWLEEECGNMAREGLRVLVVAKKSLAEEQYQDFEARYVQAKLSVHDRSLKVATVIESLEMEMELLCLTGVEDQLQADVRPTLETLRNAGIKVWMLTGDKLETATCTAKNAHLVTRNQDIHVFRLVTNRGEAHLELNAFRRKHDCALVISGDSLEVCLKYYEYEFMELACQCPAVVCCRCAPTQKAQIVRLLQERTGKLTCAVGDGGNDVSMIQESDCGVGVEGKEGKQASLAADFSITQFKHLGRLLMVHGRNSYKRSAALSQFVIHRSLCISTMQAVFSSVFYFASVPLYQGFLIIGYSTIYTMFPVFSLVLDKDVKSEVAMLYPELYKDLLKGRPLSYKTFLIWVLISIYQGSTIMYGALLLFESEFVHIVAISFTSLILTELLMVALTIQTWHWLMTVAELLSLACYIASLVFLHEFIDVYFIATLSFLWKVSVITLVSCLPLYVLKYLRRRFSPPSYSKLTS

From article PMC12000689
